Results from paper PMC8636562, “Mounting, structure and autocleavage of a type VI secretion-associated Rhs polymorphic toxin” (Nature Communications, 2021).
These are yes or no findings as the source states them, for the method shown. Binding seen in cells or lysates may run through a third protein. For some of these results: Binding calls can cover weak binding; strength is not graded here. Where a sequence is shown, tags or fusion partners need not be part of it.

T1: Photorhabdus laumondii EagR chaperone (Plu0354), C-terminally Strep-tagged (Photorhabdus laumondii (P. luminescens subsp. laumondii TTO1)) (UniProt Q7N9H9)
T1 sequence: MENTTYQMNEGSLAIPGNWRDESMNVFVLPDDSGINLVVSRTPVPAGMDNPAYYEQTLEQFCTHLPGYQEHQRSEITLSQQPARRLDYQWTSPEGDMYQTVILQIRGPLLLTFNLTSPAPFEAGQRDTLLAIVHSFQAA

B1: Photorhabdus laumondii VgrG (Plu0355), N-terminally 6xHis-TEV-tagged (protein, UniProt Q7N9H8 1-631)
chain: MSFQKKTANAGNLAQQIADRLSPQSAGGLQFTLTAGGLPPHTFVVAGFTLHEALSTPFTLTVSLASADPAIDFAAVLDQSATLTILRAGKVERTVTGMVASFVQGNTGKHQTRYDMTIRPDMWRTTLRQNARIFQQQDIKTILTTLLKENGVRDVAFSLRNPHPEREFCVQYRETDFDFLQRLTAEEGIFYFFEFTGNKNTLVFADDAGSVVKGPVLPYHPDDAEQARQLCITRLTRQAQVRPAVVELKDYTFKNPAWAAEFRHQMREQDLQHTGYEHFDFPGRFKDEQHGADFTRYRLEALRNNALTGDGDSNAATMQPGVLFTLTGHPRPDLNRCWQLVGVTHHGSQPQALEQAAGESGTVMRNDFTFIADNQHWRPAPLPKPAMEGPQIAKVVGPAGEEIYCDAYGRIRLQFLWDRYGRSNDSSSCWIRVTQPWAGQGWGMLAIPRIGQEVVVDFLNGDPDQPIVTGRTYHASNLPPGALPGSKTQMTFRSKTHKGDGYNELRFEDAKGSEALALHAQRDMNTVVLNNRETRVMNDHTESIGHNQMLSVRNDRHKEVTGNEVSAITGLRQITVEKDSLLNVKNNIQIQARAGGIEIATAGGSITIDNAGNISIQGANITINGKQVNVN

How the values were obtained:
Assay in all cases: pull-down; three proteins co-produced in E. coli BL21(DE3) (Strep-tagged EagR, FLAG-tagged Rhs1 and His6-tagged VgrG, or their truncated variants); cleared cell extract on Strep-Tactin resin, 1 h at 4 °C, buffer A (50 mM Tris-HCl pH 8.5, 250 mM NaCl, 1 mM TCEP), eluted with 2.5 mM desthiobiotin; Coomassie and immunoblot
[1] = target: T1, Photorhabdus laumondii EagR chaperone (Plu0354), C-terminally Strep-tagged (Photorhabdus laumondii (P. luminescens subsp. laumondii TTO1))
[2] = target: Rhs1 C-terminal truncation: complete N-terminus prePAAR-PAAR-postPAAR, FLAG-tagged (Photorhabdus laumondii (P. luminescens subsp. laumondii TTO1)) (UniProt Q7N9I0)
[3] = target: Rhs1 N-terminal truncation deleted of prePAAR, FLAG-tagged (Photorhabdus laumondii (P. luminescens subsp. laumondii TTO1))
[4] = target: Rhs1 N-terminal truncation deleted of prePAAR-PAAR, FLAG-tagged (Photorhabdus laumondii (P. luminescens subsp. laumondii TTO1))

| Molecule | binding [1] | binding [2] | binding [3] | binding [4] |
| --- | --- | --- | --- | --- |
| Rhs1 C-terminal truncation: complete N-terminus prePAAR-PAAR-postPAAR, FLAG-tagged (from UniProt Q7N9I0) (domain or fragment) | binds |  |  |  |
| Rhs1 N-terminal truncation deleted of prePAAR-PAAR-postPAAR, FLAG-tagged (domain or fragment) | no binding |  |  |  |
| Rhs1 N-terminal truncation deleted of prePAAR-PAAR, FLAG-tagged (domain or fragment) | binds |  |  |  |
| Rhs1 N-terminal truncation deleted of prePAAR, FLAG-tagged (domain or fragment) | binds |  |  |  |
| B1 |  | binds | no binding | no binding |
